Results: PubChem BioAssay AID540276 (National Center for Advancing Translational Sciences (NCATS), 2011)
Out of some 300,000 compounds screened, about 5,400 (1.8%) were called active. Inconclusive means that the source gave no clear call. Such entries were picked first, then a sample of the others. The call rests on the fitted dose curve; tested in HEK293 cells. A potency beside an inconclusive call is a rough fit, not a confirmed value.

assay: qHTS for inhibitors of binding or entry into cells for Marburg Virus; settings: Marburg virus pseudotyped entry inhibition, cell reporter; activity change, negative = inhibition: at 37.8 µM (top of the series) unless noted
On the % scale 0 is the no-effect control and ±100 the full control effect; potency means the concentration at half of the fitted maximal effect.

SMILES	Potency	activity change, negative = inhibition
c1ccc2c(c1)CCN(C1=Nc3cccc4cccc1c34)C2	inconclusive: 31.6 µM [inhibitor, single point]	
Cc1nnc(N/N=C/c2cc([N+](=O)[O-])c(N3CCC(C)CC3)cc2N2CCC(C)CC2)n1N	inconclusive: 32.6 µM [inhibitor, single point]	
C=CCn1c(Cc2csc(N)n2)nnc1SCC(=O)Nc1ccccc1C(F)(F)F	inactive	
CN1CCN(C(=O)/C(=C/c2cccnc2)NC(=O)c2cccc(Br)c2)CC1	inconclusive: 0.562 µM [inhibitor, full curve, poor fit]	
Cc1ccc(S(=O)(=O)NNC(=O)C(=O)NNc2ccccn2)cc1	inactive	
CCOC(=O)c1cnn2cc(-c3[nH]ncc3[N+](=O)[O-])cnc12	inactive	
O=C(COC(=O)C1=NN(c2ccccc2)C(=O)CC1)NCc1ccccc1Cl	inactive	
CC(SCC(=O)NC12CC3CC(CC(C3)C1)C2)C(=O)O (stereo unspecified)	inconclusive: 3.16 µM [inhibitor, partial curve, poor fit]	
Cc1ccc(Cn2cc(S(=O)(=O)c3ccc(Cl)cc3)c(=O)c3cc(F)ccc32)cc1	inconclusive: 2.24 µM [inhibitor, full curve, poor fit]	
CCN(CC)S(=O)(=O)c1ccc(N2CCCCC2)c(NC(=O)/C(C#N)=C/c2ccc(OC)cc2)c1	inconclusive: 1.03 µM [inhibitor, full curve, poor fit]	
COc1ccc(CC2(CO)CCN(CC3=Cc4cc(Cl)ccc4OC3)CC2)cc1	inconclusive: 12.6 µM [inhibitor, partial curve, poor fit]	
CCOc1cc(/C=C(\C#N)C(=O)Nc2cccc(C(=O)O)c2)cc(Br)c1OC(=O)c1ccc(OC)cc1	inactive	
CCN1CCN(S(=O)(=O)c2ccc(Cl)c(C(=O)Oc3ccc(CC(=O)OC)cc3)c2)CC1		inconclusive: 1.88% [activator]
Cc1ccc(C)c(N2CCN(C(=O)c3cn(CC(C)C)c(=O)c4c3c3ccccc3n4C)CC2)c1	inactive	
COc1cccc(CO[C@H]2C=C[C@@H](c3ccccc3)O[C@H]2COC(C)=O)c1	inactive	
CCOC(=O)COc1nc2c(c(-c3ccco3)c1C#N)CCc1ccccc1-2	inactive	
Cc1ccc2nc(N3CCN(C)CC3)c(C#N)cc2c1	inconclusive: 0.794 µM [activator, full curve]	
N#CC1=C(N)OC2=C(C(=O)CCC2)C1c1ccccc1 (stereo unspecified)	inconclusive: 3.26 µM [inhibitor, partial curve, poor fit]	
Cc1ccc(S(=O)(=O)N2CCCOC2CNC(=O)C(=O)NC2CCCCC2)cc1 (stereo unspecified)	inactive	
Oc1ccc(/C=C/c2cnccn2)cc1	inconclusive: 1.41 µM [activator, partial curve, poor fit]	
CS(=O)(=O)N1CCc2cc(C(=O)N3CCN(c4cccc(Cl)c4)CC3)ccc21	inconclusive: 5.62 µM [inhibitor, single point]	
Nc1c(C(=O)CSc2nnnn2-c2ccc(O)cc2)c(=O)[nH]c(=O)n1C1CC1	inconclusive: 31.6 µM [activator, single point]	

SMILES	Potency	activity change, negative = inhibition
Cc1ccc(OCC(=O)Nc2ccccc2-c2ccccc2)cc1	inconclusive: 5.17 µM [inhibitor, single point]	
COc1cccc(NC(=O)COC(=O)CNS(=O)(=O)c2c(F)cccc2F)c1	inconclusive: 0.366 µM [activator, partial curve, poor fit]	
Cc1ccc(S(=O)(=O)NCc2ccc(C(=O)N3CCc4ccccc4C3)cc2)cc1	inconclusive: 35.5 µM [inhibitor, single point]	
CN(Cc1ccccc1Cl)C(=O)CCNC(=O)c1ccco1	inactive	
COc1ccc(CCNC(=O)C23CCC(C)(C(=O)C2Br)C3(C)C)cc1OC (stereo unspecified)	inconclusive: 35.5 µM [inhibitor, single point]	
COc1ccc2c(C)cc(=O)[nH]c2c1	inactive	
COc1ccc(N2CCN(c3oc(Cc4cccc5ccccc45)nc3C#N)CC2)cc1	inconclusive: 0.291 µM [inhibitor, full curve, poor fit]	
Nc1nc(NCc2ccccc2Cl)n(-c2ccccc2)n1	inactive	
CCCCC1(O)CC(C(F)(F)F)=NN1C(=O)COc1ccccc1 (stereo unspecified)	inactive	
CCOC(=O)N1CCN(C(=O)c2nn(-c3ccc(C)cc3)c(=O)c3c2c2ccccc2n3C)CC1	inconclusive: 10 µM [inhibitor, partial curve, poor fit]	
CCN(C(=O)Cn1ccc(C(F)(F)F)n1)c1c(N)n(Cc2ccccc2)c(=O)[nH]c1=O	inconclusive: 1.26 µM [activator, single point]	
CCN(CC)c1ccc2nc3ccccc3[n+](CC)c2c1	inconclusive: 2 µM [inhibitor, full curve, poor fit]	
CC(C)OC(=O)c1ccc(NC(=O)c2ccco2)cc1	inconclusive: 3.55 µM [activator, single point]	
Cc1nc(Nc2ccc(O)cc2)c2c3c(sc2n1)CCCC3	inconclusive: 15.8 µM [inhibitor, single point]	
O=C(c1cc(-c2ccc(F)cc2)nc2ccccc12)N1CCC1	inconclusive: 35.5 µM [inhibitor, single point]	
Cc1ccccc1OCc1ccc(C(=O)N2CCOCC2)o1	inactive	
CCOC(=O)C1=C(C)NC(C)=C(C(=O)OCC)C1C(=O)OCC(=O)NCCc1ccc(S(N)(=O)=O)cc1	inconclusive: 0.447 µM [inhibitor, partial curve, poor fit]	
CCc1ccc(C(=O)c2cn(CC(=O)Nc3ccc(Cl)cc3)c3cc4c(cc3c2=O)OCO4)cc1	active: 4.47 µM	
CCOC(=O)C1=C(C)N=c2s/c(=C/c3cccc([N+](=O)[O-])c3O)c(=O)n2C1c1ccccc1 (stereo unspecified)	inconclusive: 8.91 µM [inhibitor, partial curve, poor fit]	
N/C(=N\OC(=O)c1cc(-c2ccccc2)nc2ccccc12)c1ccncc1	inconclusive: 29.1 µM [inhibitor, single point]	
O=C(CCN1C(=O)/C(=C\c2ccccc2)SC1=S)N1CCCCC1	inactive	
Cc1nn(-c2ccccc2)c(Cl)c1/C=N/NC(=O)c1cccc(S(=O)(=O)N2CCCC2)c1	inconclusive: 3.98 µM [inhibitor, full curve, poor fit]	

SMILES	Potency	activity change, negative = inhibition
CCOc1cc2sc(N3CCC(C(=O)Nc4ccc(CC)cc4)CC3)nc2cc1Br	inconclusive: 1.78 µM [activator, full curve]	
O=C(CSc1nccn(-c2ccc(Br)cc2)c1=O)NCc1ccccc1	inconclusive: 7.08 µM [inhibitor, partial curve, poor fit]	
CC1CCCCN1C(=O)C1CC(c2ccc(F)cc2)=NO1 (stereo unspecified)	inactive	
O=C1OC(CN(Cc2ccccc2)Cc2ccccc2)CN1N=Cc1ccc([N+](=O)[O-])o1 (stereo unspecified)	inconclusive: 3.16 µM [inhibitor, partial curve]	
Cc1cc(-n2nc(C)cc2C)n2nc(C)c(-c3ccccc3)c2n1	inconclusive: 3.66 µM [inhibitor, partial curve, poor fit]	
CN(C)c1nc(C(=O)OCCO)nc(N(C)C)n1	inconclusive: 0.164 µM [inhibitor, full curve, poor fit]	
CCN(CC)CCNc1nc2cc(OC)c(OC)cc2c2nc(-c3ccccc3)nn12	inconclusive: 0.126 µM [inhibitor, full curve, poor fit]	
Cc1cc(C)n(-c2ccc(C(=O)Nc3cccc(S(=O)(=O)N(C)C)c3)cc2)n1	inconclusive: 3.55 µM [inhibitor, partial curve, poor fit]	
CCC(Cn1nnc2ccccc2c1=O)NC(=O)Nc1cc(C)cc(C)c1 (stereo unspecified)	inactive	
O=C(c1cccc(F)c1)N1CCc2ccccc2C1	inactive	
C=CCN=C1SCC(=O)N1S(=O)(=O)c1ccc(C)cc1	inconclusive: 7.3 µM [inhibitor, single point]	
COc1ccc(OC)c(C=NNC(=O)c2ccc(NS(=O)(=O)c3cccs3)cc2)c1	inconclusive: 3.16 µM [activator, single point]	
CCOc1ccccc1N1CCN(Cc2cccc(OC)c2O)CC1	inconclusive: 16.4 µM [inhibitor, partial curve, poor fit]	
O=C(/C=C1\SC(=O)N(CC(=O)Nc2ccc(F)cc2)C1=O)Nc1ccc(Cl)cc1	inactive	
O=C(NNC(=O)c1ccc([N+](=O)[O-])cc1C(=O)O)c1ccncc1	inconclusive: 1.26 µM [activator, single point]	
O=C(/C=C/c1cccc2ccccc12)N1CCOCC1	inactive	
CCOC(=O)C(C(=O)OCC)N(C#N)c1nc(SC)nc(N(C)C)n1	inconclusive: 1.26 µM [inhibitor, single point]	
Cc1c(NS(=O)(=O)c2cccc(C(=O)Nc3cccc(F)c3)c2)c(=O)n(-c2ccccc2)n1C	inconclusive: 1.26 µM [inhibitor, partial curve, poor fit]	
CCCCNC(=O)c1nn(C)c2c1CSc1ccccc1-2	inconclusive: 11.2 µM [inhibitor, partial curve, poor fit]	
Cc1ccc(C(=O)c2cn(Cc3cccc(Cl)c3)c3nc(C)ccc3c2=O)cc1	inconclusive: 1.78 µM [inhibitor, full curve]	
COc1cccc(CNC(=O)CCC2CCCN(c3cc(C)nc(N4CCCC4)n3)C2)c1 (stereo unspecified)	inconclusive: 5.62 µM [inhibitor, single point]	
CCC1(c2ccc(Cl)cc2)NC(=O)N(CC(=O)NCc2ccc(F)cc2)C1=O (stereo unspecified)	inconclusive: 31.6 µM [inhibitor, partial curve, poor fit]	

Taken from the entries so far for reference:
SMILES	Potency	activity change, negative = inhibition
O=C(c1cccc(F)c1)N1CCc2ccccc2C1	inactive	
C=CCN=C1SCC(=O)N1S(=O)(=O)c1ccc(C)cc1	inconclusive: 7.3 µM [inhibitor, single point]	
COc1ccc(OC)c(C=NNC(=O)c2ccc(NS(=O)(=O)c3cccs3)cc2)c1	inconclusive: 3.16 µM [activator, single point]	
